# Laboratory results from the supplement of paper PMC3334620.
# The full ranking holds about 33,000 sequences; the median of “E-score (-0.5 to 0.5)” is about -0.015, and the highest 2% start at about 0.3. The list shows a part of the results.
# Biological target: T1, Abf1 (UniProt P14164)
# T1 sequence: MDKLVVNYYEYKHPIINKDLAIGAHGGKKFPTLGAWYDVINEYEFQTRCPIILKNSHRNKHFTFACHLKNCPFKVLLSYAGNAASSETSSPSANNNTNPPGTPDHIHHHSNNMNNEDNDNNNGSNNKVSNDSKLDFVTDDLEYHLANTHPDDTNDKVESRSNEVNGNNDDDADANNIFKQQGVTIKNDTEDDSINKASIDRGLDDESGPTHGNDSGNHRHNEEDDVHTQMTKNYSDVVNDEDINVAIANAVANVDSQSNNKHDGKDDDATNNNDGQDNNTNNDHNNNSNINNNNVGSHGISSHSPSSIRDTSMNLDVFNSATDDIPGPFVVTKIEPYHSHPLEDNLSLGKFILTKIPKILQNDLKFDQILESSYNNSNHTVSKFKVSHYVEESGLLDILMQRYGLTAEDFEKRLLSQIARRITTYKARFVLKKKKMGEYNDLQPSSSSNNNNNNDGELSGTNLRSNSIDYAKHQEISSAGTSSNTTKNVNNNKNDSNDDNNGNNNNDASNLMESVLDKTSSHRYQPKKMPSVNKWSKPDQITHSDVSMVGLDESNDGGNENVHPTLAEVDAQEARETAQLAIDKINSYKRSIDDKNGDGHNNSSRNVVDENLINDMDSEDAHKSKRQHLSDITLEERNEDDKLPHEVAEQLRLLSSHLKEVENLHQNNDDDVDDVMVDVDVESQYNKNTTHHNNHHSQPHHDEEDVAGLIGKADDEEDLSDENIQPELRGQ
# Test: PBM E-score (8-mer binding enrichment) (E-score (-0.5 to 0.5)); higher = stronger / more preferred TF binding
# Settings: protein concentration: 200 nM; construct: GST-full length
# Procedure, shortened: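 Each ungapped eight-base word and its reverse complement, pooled, received an E-score from the Universal PBM Analysis Suite. Underlying scans, normalised with masliner, recorded fluorescent anti-GST bound to GST-tagged yeast transcription factors. These were applied at about 100-200 nM to universal all-10-mer Agilent arrays double-stranded by primer extension.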
row,Sequence,PBM E-score
1,CCGGTACC,-0.121
2,AGGTCTGC,-0.209
3,AACTGGAG,-0.175
4,ACAGGACG,-0.0827
5,GTTTAAAC,0.132
6,GTAACGGA,0.182
7,AAGAGCTT,-0.207
8,GTAAGGAC,-0.0313
9,ACGCTATC,-0.174
10,AGTAGACG,0.187
11,AATACTAC,0.301
12,CCTCCGTC,-0.044
13,GAAGTGTA,-0.269
14,CCCAGGAC,-0.152
15,GCGTGCCA,-0.0325
16,ATACTATC,0.15
17,GATTCCAA,-0.0213
18,TATGACCA,-0.0211
19,CGTGTAAG,0.275
20,CTAATCCC,-0.0463
21,CAGGCTGG,-0.255
22,CTATCGGA,-0.0464
23,ATCCCGGC,0.0423
24,AAGCACAC,-0.153
25,AAGTCTGC,-0.272

row,Sequence,PBM E-score
1,CTAGACCC,-0.0825
2,TGTTTCAA,0.0673
3,ATTTCCGA,0.151
4,GCAATATA,0.108
5,AAAGCGCG,-0.0642
6,CTGTGCGA,0.0508
7,CTGGAGTA,-0.163
8,AACAAAGA,-0.113
9,AAACAGCA,0.0135
10,CAACACGC,-0.239
11,GCTACGGA,0.218
12,CGCCCATC,-0.154
13,CGTGAGTC,0.0135
14,ACCCCCAA,-0.219
15,ACGCCTAA,0.0738
16,AGACTTCG,-0.14
17,CGCGTACG,0.271
18,ACTAATAA,0.264
19,AAACCTCC,-0.203
20,AGTTCTGC,-0.197
21,AGACCTTG,-0.266
22,ACTCCGAT,-0.196
23,ATGGGCTC,-0.117
24,CGATCTAG,0.0182
25,CAAGCTTC,-0.0849

row,Sequence,PBM E-score
1,ACGGAACA,0.142
2,ACCGGCTG,-0.114
3,GTTATCAA,0.143
4,GCGACGTA,0.235
5,ACCGCGAA,-0.0629
6,CATACCCC,-0.205
7,CTTACTGC,-0.0383
8,CCAATAAC,0.0417
9,AACGTGAA,0.057
10,GGTCATAC,-0.0499
11,GCCCCTCA,-0.22
12,ATCAGCGA,-0.0614
13,CTTATGGA,0.0136
14,AATAGCTC,-0.27
15,ATCGATCG,0.242
16,ATGATGGA,-0.031
17,CGACACGC,0.0501
18,ATTGTCCA,0.208
19,AACAATTC,-0.151
20,AGGTTTAG,-0.0716
21,ATCTTAAC,0.205
22,CAAAAAGC,-0.0206
23,CGCGCGGC,0.0293
24,CAGGTCTC,-0.0574
25,TATCCCGA,0.0509

row,Sequence,PBM E-score
1,TCGTTCAA,0.357
2,GAATCCCA,-0.00947
3,CCTGGCAC,-0.115
4,AATTAGTG,0.203
5,CTATTAAA,-0.0136
6,GGTTAACA,-0.138
7,CCCGGCTA,-0.275
8,ATTGCTGC,-0.106
9,CAACCCTC,-0.0344
10,CAGGGCCG,0.0347
11,CGGAGTCA,-0.111
12,AGTATAAC,0.194
13,AGAAGCTG,-0.231
14,ACCTTAGA,0.00393
15,AGTAGAAC,-0.103
16,AGGATGCC,-0.145
17,ACAGATTA,-0.018
18,CCAGTAGA,0.0182
19,CTAGAAGC,-0.119
20,ATCATAAC,0.118
21,GGATCTTA,0.123
22,AGCATTCG,0.0444
23,GGGGCTGA,-0.149
24,TCGGAACA,0.127
25,ATGACACC,0.187

row,Sequence,PBM E-score
1,ACTCCTAG,-0.236
2,AGAGTCGC,-0.117
3,AATGGACG,0.158
4,GAGCGTCC,-0.0323
5,CGTAGCCC,-0.116
6,AAGGGCCT,-0.263
7,AATGTTGG,-0.0056
8,GAAACCGC,-0.15
9,ATTTAACG,0.153
10,ACGTATCT,-0.0664
11,CCAATGCC,-0.309
12,ATCGATTA,0.151
13,GCACTACA,0.00542
14,AATATCTG,0.0517
15,CACTGGGA,-0.109
16,TAGTTCCA,-0.0461
17,ATTCTTCA,-0.052
18,AATGGTGC,-0.217
19,AGGGGGGA,-0.318
20,AGCTCCGC,-0.0452
21,AACAAGAC,-0.107
22,ACTAACGC,-0.0901
23,CGGTACAC,-0.0212
24,GACTGATA,-0.0689
25,GGGCATCA,-0.121

row,Sequence,PBM E-score
1,AACGGCGA,0.327
2,ACTGAACC,-0.129
3,CTGATGTC,0.155
4,ACTTGGAG,-0.00439
5,AGTCGACT,-0.0456
6,GCGCGCGA,0.234
7,ACAGATGT,-0.124
8,GGTGCGCA,0.0921
9,AGGTTTGC,-0.0309
10,ACTATGGC,-0.189
11,TATTCAAA,0.134
12,ATTCGACG,0.143
13,ATACCCAC,0.102
14,AGTGTGGA,-0.0464
15,ACATTCCC,0.17
16,GACGAAAC,0.344
17,ATGTTTAG,0.0544
18,TCTCCCAA,-0.00035
19,CAGCGTGA,0.177
20,AGGACCGA,-0.169
21,AGGATTTA,0.0407
22,GCTTCACC,-0.0942
23,CTCATCAG,0.213
24,AAGATAAA,0.132
25,AGTGTCAT,0.21

# An excerpt of these results, as tab-separated lines.
row	Sequence	PBM E-score
3	CTGATGTC	0.155
10	ACTATGGC	-0.189

# Further records follow:

row,Sequence,PBM E-score
1,CCTCTATC,-0.0168
2,AAGCGGTA,0.036
3,ACGCGAGG,-0.0951
4,CCCCGGCC,-0.398
5,CATAACCG,-0.101
6,AAGGAAGT,0.0102
7,ATCTTGTG,-0.056
8,AACAAAGC,-0.0315
9,CGCCTCGA,-3e-05
10,ATCCTCAG,0.0499
11,GCAGCATA,-0.113
12,AGTTTCAT,0.0393
13,ACGCAAAA,-0.114
14,CCCCTACA,-0.293
15,CCTTCCGA,-0.232
16,GGTTTTAC,-0.0809
17,TGACGACA,0.361
18,CCCGCGCA,-0.0881
19,TACAGACA,0.0696
20,TACATTCA,-0.0187
21,CCACCGCA,-0.0873
22,ATGCTTAC,-0.115

# Shown with tabs: part of the list above.
row	Sequence	PBM E-score
19	TACAGACA	0.0696
20	TACATTCA	-0.0187
22	ATGCTTAC	-0.115
